Experimental data reported in patent US8268999B2, “Tri-cyclic pyrazolopyridine kinase inhibitors” (Vertex Pharmaceuticals Incorporated, priority 2009, dated 2012).
Some entries share one result that the patent states for a list of compounds.

The chains behind the UniProt entries cited, without tags or fusion partners.
UniProt P48736, whole entry, species assumed: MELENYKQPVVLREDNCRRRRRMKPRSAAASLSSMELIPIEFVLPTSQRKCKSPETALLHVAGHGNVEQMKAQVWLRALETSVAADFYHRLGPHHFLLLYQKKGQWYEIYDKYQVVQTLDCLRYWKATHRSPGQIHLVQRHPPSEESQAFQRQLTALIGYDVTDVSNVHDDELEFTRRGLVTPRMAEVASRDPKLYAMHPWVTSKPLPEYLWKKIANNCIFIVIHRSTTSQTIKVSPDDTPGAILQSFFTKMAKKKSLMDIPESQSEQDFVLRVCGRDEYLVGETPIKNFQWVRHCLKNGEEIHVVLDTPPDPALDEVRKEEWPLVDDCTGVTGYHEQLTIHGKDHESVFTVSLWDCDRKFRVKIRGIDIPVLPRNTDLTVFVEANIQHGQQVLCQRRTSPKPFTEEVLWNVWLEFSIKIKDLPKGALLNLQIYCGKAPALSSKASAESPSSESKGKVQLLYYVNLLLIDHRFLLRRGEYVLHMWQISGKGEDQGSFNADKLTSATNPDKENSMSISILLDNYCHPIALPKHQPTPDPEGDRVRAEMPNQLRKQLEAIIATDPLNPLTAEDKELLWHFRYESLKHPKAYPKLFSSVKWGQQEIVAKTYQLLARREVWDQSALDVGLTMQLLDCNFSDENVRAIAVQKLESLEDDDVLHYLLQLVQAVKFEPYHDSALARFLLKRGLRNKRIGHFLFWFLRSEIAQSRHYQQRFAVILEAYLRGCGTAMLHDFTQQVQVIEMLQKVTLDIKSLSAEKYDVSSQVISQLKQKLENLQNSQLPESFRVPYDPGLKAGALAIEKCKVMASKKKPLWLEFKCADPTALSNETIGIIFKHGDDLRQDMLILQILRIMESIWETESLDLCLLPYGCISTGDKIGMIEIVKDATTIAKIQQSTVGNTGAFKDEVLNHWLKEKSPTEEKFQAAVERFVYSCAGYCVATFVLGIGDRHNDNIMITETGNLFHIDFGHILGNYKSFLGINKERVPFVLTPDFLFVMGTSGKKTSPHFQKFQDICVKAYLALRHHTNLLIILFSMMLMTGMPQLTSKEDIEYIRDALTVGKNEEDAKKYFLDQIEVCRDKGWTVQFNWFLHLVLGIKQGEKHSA
UniProt P42336, whole entry, species assumed: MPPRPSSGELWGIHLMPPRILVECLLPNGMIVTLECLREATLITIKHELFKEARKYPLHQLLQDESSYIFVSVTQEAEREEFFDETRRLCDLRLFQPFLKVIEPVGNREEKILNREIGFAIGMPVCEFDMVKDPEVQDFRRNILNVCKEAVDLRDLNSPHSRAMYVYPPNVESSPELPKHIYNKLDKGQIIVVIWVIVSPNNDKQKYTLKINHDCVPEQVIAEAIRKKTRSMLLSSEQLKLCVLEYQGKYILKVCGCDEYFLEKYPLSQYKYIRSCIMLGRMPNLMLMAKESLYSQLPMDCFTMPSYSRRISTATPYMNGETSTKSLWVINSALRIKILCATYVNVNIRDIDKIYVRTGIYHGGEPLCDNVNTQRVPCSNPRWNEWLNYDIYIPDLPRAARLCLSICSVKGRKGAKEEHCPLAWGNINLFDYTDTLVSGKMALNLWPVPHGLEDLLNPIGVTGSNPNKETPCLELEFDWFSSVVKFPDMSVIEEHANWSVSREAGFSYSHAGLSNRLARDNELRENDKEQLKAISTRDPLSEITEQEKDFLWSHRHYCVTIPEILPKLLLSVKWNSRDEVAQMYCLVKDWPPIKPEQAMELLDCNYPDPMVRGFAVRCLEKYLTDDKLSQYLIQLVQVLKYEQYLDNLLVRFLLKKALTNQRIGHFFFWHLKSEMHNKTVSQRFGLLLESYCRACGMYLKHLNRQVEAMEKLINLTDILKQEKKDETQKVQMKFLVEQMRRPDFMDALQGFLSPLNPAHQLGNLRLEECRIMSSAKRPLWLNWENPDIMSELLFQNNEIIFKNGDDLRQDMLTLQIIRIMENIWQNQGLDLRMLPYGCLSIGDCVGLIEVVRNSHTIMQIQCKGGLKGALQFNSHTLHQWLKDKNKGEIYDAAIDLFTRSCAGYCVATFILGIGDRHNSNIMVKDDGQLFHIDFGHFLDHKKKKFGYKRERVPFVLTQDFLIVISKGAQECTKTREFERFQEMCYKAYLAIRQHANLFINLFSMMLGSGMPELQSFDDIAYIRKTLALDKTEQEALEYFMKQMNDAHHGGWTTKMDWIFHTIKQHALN

What was measured:
PI3Kγ = PI3Kγ (Homo sapiens, UniProt P48736); test: PI3K Inhibition Assay (33P-ATP, PI(4,5)P2 substrate), PI3Kγ; format: biochemical; conditions: 2 nM final enzyme, 3 μM ATP, 30 μM PI(4,5)P2, 30 min at 25° C.; competitive tight binding Ki fit
Experimental: (§1) Using a Biomek FX from Beckman Coulter, 1.5 μL of each of ten 2.5-fold serial dilutions of a compound of the invention in 100% DMSO was added to an individual well (hereafter, “test well”) in a 96 well polystyrene plate [Corning, Costar Item No. 3697]. One test well also contained 1.5 μL of DMSO with no compound. […] Using a Titertek Multidrop, 50 μL of Reaction Mix [100 mM HEPES pH 7.5, 50 mM NaCl, 10 mM DTT, 0.2 mg/mL BSA, 60 μM phosphatidylinositol(4,5)-bisphosphate diC16 (PI(4,5)P2; Avanti Polar Lipids, Cat. No. 840046P) and PI3K isoform of interest (see Table 3 for isoform concentrations)] was added to each well. To initiate the reaction, 50 μL of ATP Mix [20 mM MgCl2, 6 μM ATP (100 μCi/μmole ^33P-ATP)] was added each well, followed by incubating the wells for 30 min. at 25° C. Final concentrations in each well were 50 mM HEPES 7.5, 10 mM MgCl2, 25 mM NaCl, 5 mM DTT, 0.1 mg/mL BSA, 30 μM PI(4,5)P2, 3 μM ATP, and the PI3K isoform of interest (see Table 3). Final compound concentrations in each well ranged from 10 μM to 1 nM.
(§2) After incubation, the reactions in each well were quenched by addition of 50 μL of stop solution [30% TCA/Water, 10 mM ATP]. Each quenched reaction mixture was then transferred to a 96 well glass fiber filter plate [Corning, Costar Item No. 3511]. The plate was vacuum-filtered and washed three times with 150 μL of 5% TCA/water in a modified Bio-Tek Instruments ELX-405 Auto Plate Washer. 50 μL of scintillation fluid was added to each well and the plate read on a Perkin-Elmer TopCount™ NXT liquid scintillation counter to obtain ^33P-counts representing inhibition values.
(§3) The value for the background well was subtracted from the value obtained for each test well and the data were fit to the competitive tight binding Ki equation described by Morrison and Stone, Comments Mol. Cell. Biophys. 2: 347-368, 1985.

PI3Kα = PI3Kα (Homo sapiens, UniProt P42336); test: PI3K Inhibition Assay (33P-ATP, PI(4,5)P2 substrate), PI3Kα; format: biochemical; conditions: 2 nM final enzyme, 3 μM ATP, 30 μM PI(4,5)P2, 30 min at 25° C.; competitive tight binding Ki fit
Experimental: as §1, §2, §3

**Q.** How did the Ki (PI3Kγ) turn out when `CCOc1ncc(-c2ccc3nc(Nc4cnccn4)sc3n2)cc1OC` [Compound 38] was run?
**A.** < 1.5 µM

**Q.** How did the Ki (PI3Kγ) turn out when `COc1ncc(-c2ccc3nc(Nc4cnccn4)sc3n2)cc1OC(C)C` [Compound 39] was run?
**A.** < 1.5 µM

**Q.** Which Ki (PI3Kγ) does the source give for `COc1cc(-c2ccc3nc(Nc4cccnc4)sc3n2)cnc1OC` [Compound 40] here?
**A.** < 1.5 µM

**Q.** Which Ki (PI3Kγ) does the source give for `CCOc1ncc(-c2ccc3nc(Nc4cccnc4)sc3n2)cc1OC` [Compound 41] here?
**A.** < 1.5 µM

**Q.** With `CCOc1cc(-c2ccc3nc(Nc4cccnc4)sc3n2)cnc1OCC` [Compound 42] as the compound, how does the Ki (PI3Kγ) read?
**A.** < 1.5 µM

**Q.** `COc1ncc(-c2ccc3nc(Nc4cccnc4)sc3n2)cc1OC(C)C` [Compound 43] was tested. Which Ki (PI3Kγ) did it give?
**A.** < 1.5 µM

**Q.** With `FC(F)(F)c1cncc(-c2ccc3nc(Nc4cccnc4)sc3n2)c1` [Compound 44] as the compound, how does the Ki (PI3Kγ) read?
**A.** < 1.5 µM

**Q.** Which results are given for `COc1cncc(-c2ccc3nc(Nc4ccccc4)sc3c2)c1` [Compound 45]?
**A.** Ki (PI3Kα): < 1.5 µM; Ki (PI3Kγ): < 1.5 µM

**Q.** `CCCCc1ccc(Nc2nc3ccc(-c4cncc(OC)c4)cc3s2)cc1` [Compound 46] was tested. Which Ki (PI3Kα) did it give?
**A.** < 1.5 µM

**Q.** What about the Ki (PI3Kγ) of the same compound?
**A.** < 1.5 µM

**Q.** For `COc1cncc(-c2ccc3nc(Nc4ccc(C(C)C)cc4)sc3c2)c1` [Compound 47], which Ki (PI3Kα) is on record?
**A.** < 1.5 µM

**Q.** And the Ki (PI3Kγ)?
**A.** < 1.5 µM

**Q.** With `COc1cncc(-c2ccc3nc(Nc4ccc(OC(C)C)cc4)sc3c2)c1` [Compound 48] as the compound, how does the Ki (PI3Kγ) read?
**A.** < 1.5 µM

**Q.** For `COc1cncc(-c2ccc3nc(Nc4ccc(F)cc4)sc3c2)c1` [Compound 49], which Ki (PI3Kα) is on record?
**A.** < 1.5 µM

**Q.** And the Ki (PI3Kγ)?
**A.** < 1.5 µM

**Q.** What does the source list for `COc1cncc(-c2ccc3nc(Nc4cccc(-c5ccn(C)n5)c4)sc3c2)c1` [Compound 50]?
**A.** Ki (PI3Kα): < 1.5 µM; Ki (PI3Kγ): < 1.5 µM

**Q.** How did the Ki (PI3Kα) turn out when `COc1cncc(-c2ccc3nc(Nc4ccc(C(C)=O)cc4)sc3c2)c1` [Compound 51] was run?
**A.** < 1.5 µM

**Q.** And the Ki (PI3Kγ)?
**A.** < 1.5 µM

**Q.** For `COc1cncc(-c2ccc3nc(Nc4ccc(-n5cncn5)cc4)sc3c2)c1` [Compound 52], which Ki (PI3Kα) is on record?
**A.** < 1.5 µM

**Q.** And the Ki (PI3Kγ)?
**A.** < 1.5 µM

**Q.** Which Ki (PI3Kγ) does the source give for `COc1cncc(-c2ccc3nc(Nc4cccc(C#N)c4)sc3c2)c1` [Compound 53] here?
**A.** < 1.5 µM

**Q.** How did the Ki (PI3Kγ) turn out when `COc1cncc(-c2ccc3nc(Nc4cccc(C(C)(C)C)c4)sc3c2)c1` [Compound 54] was run?
**A.** < 1.5 µM

**Q.** What does the source list for `COc1cncc(-c2ccc3nc(Nc4cccc(NC(C)=O)c4)sc3c2)c1` [Compound 55]?
**A.** Ki (PI3Kα): < 1.5 µM; Ki (PI3Kγ): < 1.5 µM

**Q.** `COc1cncc(-c2ccc3nc(Nc4cc(C)cc(C)c4)sc3c2)c1` [Compound 56] was tested. Which Ki (PI3Kγ) did it give?
**A.** < 1.5 µM

**Q.** Which results are given for `COc1cc(Nc2nc3ccc(-c4cncc(OC)c4)cc3s2)cc(OC)c1` [Compound 57]?
**A.** Ki (PI3Kα): < 1.5 µM; Ki (PI3Kγ): < 1.5 µM

**Q.** Which Ki (PI3Kγ) does the source give for `COc1cncc(-c2ccc3nc(Nc4cccc(Oc5ccccc5)c4)sc3c2)c1` [Compound 58] here?
**A.** < 1.5 µM

**Q.** `COc1cncc(-c2ccc3nc(Nc4cccc(OC(F)F)c4)sc3c2)c1` [Compound 59] was tested. Which Ki (PI3Kγ) did it give?
**A.** < 1.5 µM

**Q.** What does the source list for `CCOc1cccc(Nc2nc3ccc(-c4cncc(OC)c4)cc3s2)c1` [Compound 60]?
**A.** Ki (PI3Kα): < 1.5 µM; Ki (PI3Kγ): < 1.5 µM

**Q.** For `COc1cncc(-c2ccc3nc(Nc4cccc(-c5cnco5)c4)sc3c2)c1` [Compound 61], which Ki (PI3Kγ) is on record?
**A.** < 1.5 µM

**Q.** How did the Ki (PI3Kγ) turn out when `COc1cncc(-c2ccc3nc(Nc4cc(F)cc(C(F)(F)F)c4)sc3c2)c1` [Compound 62] was run?
**A.** < 1.5 µM

**Q.** Which results are given for `CCN(CC)C(=O)c1cccc(Nc2nc3ccc(-c4cncc(OC)c4)cc3s2)c1` [Compound 63]?
**A.** Ki (PI3Kα): < 1.5 µM; Ki (PI3Kγ): < 1.5 µM

**Q.** For `COc1cncc(-c2ccc3nc(Nc4cccc(S(=O)(=O)NC5CCCCC5)c4)sc3c2)c1` [Compound 64], which Ki (PI3Kα) is on record?
**A.** < 1.5 µM

**Q.** And the Ki (PI3Kγ)?
**A.** < 1.5 µM

**Q.** Which results are given for `COc1cncc(-c2ccc3nc(Nc4ccc(N(C)C)cc4)sc3c2)c1` [Compound 65]?
**A.** Ki (PI3Kα): < 1.5 µM; Ki (PI3Kγ): < 1.5 µM

**Q.** `COc1cncc(-c2ccc3nc(Nc4ccc(C)cc4)sc3c2)c1` [Compound 66] was tested. Which Ki (PI3Kγ) did it give?
**A.** < 1.5 µM

**Q.** How did the Ki (PI3Kγ) turn out when `COc1cncc(-c2ccc3nc(Nc4cccc(OC(C)C)c4)sc3c2)c1` [Compound 67] was run?
**A.** < 1.5 µM

**Q.** How did the Ki (PI3Kγ) turn out when `CCN(CC)c1ccc(Nc2nc3ccc(-c4cncc(OC)c4)cc3s2)cc1` [Compound 68] was run?
**A.** < 1.5 µM

**Q.** How did the Ki (PI3Kγ) turn out when `CCC(=O)c1ccc(Nc2nc3ccc(-c4cncc(OC)c4)cc3s2)cc1` [Compound 69] was run?
**A.** < 1.5 µM

**Q.** `CNC(=O)Cc1ccc(Nc2nc3ccc(-c4cncc(OC)c4)cc3s2)cc1` [Compound 70] was tested. Which Ki (PI3Kα) did it give?
**A.** < 1.5 µM

**Q.** And the Ki (PI3Kγ)?
**A.** < 1.5 µM

**Q.** Which Ki (PI3Kγ) does the source give for `COc1cncc(-c2ccc3nc(Nc4cc(OC)cc(C(F)(F)F)c4)sc3c2)c1` [Compound 74] here?
**A.** < 1.5 µM

**Q.** How did the Ki (PI3Kγ) turn out when `COc1cncc(-c2ccc3nc(Nc4ccc(-c5cnco5)cc4)sc3c2)c1` [Compound 76] was run?
**A.** < 1.5 µM

**Q.** With `COc1cncc(-c2ccc3nc(Nc4cccc(Cc5ccccc5)c4)sc3c2)c1` [Compound 78] as the compound, how does the Ki (PI3Kγ) read?
**A.** < 1.5 µM

**Q.** For `CCCOc1ccc(Nc2nc3ccc(-c4cncc(OC)c4)cc3s2)cc1` [Compound 84], which Ki (PI3Kγ) is on record?
**A.** < 1.5 µM
